Source: publication PMC10820479, “An Improved In Vitro Blood-Brain Barrier Model for the Evaluation of Drug Permeability Using Transwell with Shear Stress” (Pharmaceutics, 2023)
Counter-ions that a name gives are not always drawn.

Columns and labels:
in vitro = conditions: human
Protocol: (§1) The culture inserts (Costar®, Washington, DC, USA, 6.5 mm diameter) of polycarbonate (PC) and polyester (PET) membrane were procured from Corning Inc. (Corning, NY, USA). […] After washing twice with PBS, the cells were seeded at a density of 1 × 10^5 hCMEC/D3 cells/well in the apical chamber and 3 × 10^4 U87MG cells/well on the basolateral side of the insert. The cultivation method was modified from that described in the literature. Briefly, the insert was inverted, and U87MG cells were initially seeded. The insert was flipped 3–4 h after seeding the U87MG cells. Subsequently, hCMEC/D3 cells were seeded 1 day later.
(§2) To prevent nonspecific binding, all compounds were pre-incubated for 30 min prior to the permeability study. The samples were collected at 0 min from the donor and at 30, 60, and 90 min from the acceptor and immediately replaced with a new transport buffer. Incubation was carried out in a humidified 5% CO2 environment at 37 °C with shaking at 100 rpm.
(§3) After culturing the cells in culture inserts, as described in Section 2.3, they were transferred to the AS prepared on day 3, and cultivation was carried out with orbital shaking at 150 rpm until day 17 (Figure 1b). The cultivated AS BBB model was employed to investigate the effects of the AS size, as well as the influence of FBS and ITS. […]
(§4) The optimized AS BBB model was evaluated as follows.

[1] = test system: in vitro AS BBB model (hCMEC/D3 co-cultured with U87MG); test: in vitro
Protocol: as §1, §2, §3, §4

Papp (in vitro): 41.6 ± 7 ×10⁻⁶ cm/s
permeability (in words) [1]: high permeability
Compound: COc1cc2c(cc1OC)C(=O)C(CC1CCN(Cc3ccccc3)CC1)C2 (centres unmarked) [Donepezil, donepezil HCl]
